Measured values reported in PMC7949057, “The cytoprotective protein MANF promotes neuronal survival independently from its role as a GRP78 cofactor” (The Journal of Biological Chemistry, 2021).

T1: SH-tagged MANF (pre-SH-MANF), expressed in HEK293 cells (human) (UniProt P55145)
T1 sequence: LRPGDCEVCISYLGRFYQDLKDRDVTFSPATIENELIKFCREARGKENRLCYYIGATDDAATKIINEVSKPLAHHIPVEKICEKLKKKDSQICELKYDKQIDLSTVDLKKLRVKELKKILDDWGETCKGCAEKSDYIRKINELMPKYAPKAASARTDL

T2: SH-tagged MANF (pre-SH-MANF), expressed in INS1 cells (human) (UniProt P55145)
T2 sequence: T1 sequence

B1: peroxiredoxin-4, endogenous in HEK293 (protein, UniProt Q13162 38-271)
chain: WETEERPRTREEECHFYAGGQVYPGEASRVSVADHSLHLSKAKISKPAPYWEGTAVIDGEFKELKLTDYRGKYLVFFFYPLDFTFVCPTEIIAFGDRLEEFRSINTEVVACSVDSQFTHLAWINTPRRQGGLGPIRIPLLSDLTHQISKDYGVYLEDSGHTLRGLFIIDDKGILRQITLNDLPVGRSVDETLRLVQAFQYTDKHGEVCPAGWKPGSETIIPDPAGKLKYFDKLN
B2: GRP170, endogenous in INS1 (protein, UniProt Q63617 33-999)
chain: LAVMSVDLGSESMKVAIVKPGVPMEIVLNKESRRKTPVTVTLKENERFLGDSAAGMAIKNPKATLRYFQHLLGKQADNPHVALYRSRFPEHELNVDPQRQTVRFQISPQLQFSPEEVLGMVLNYSRSLAEDFAEQPIKDAVITVPAFFNQAERRAVLQAARMAGLKVLQLINDNTATALSYGVFRRKDINSTAQNIMFYDMGSGSTVCTIVTYQTVKTKEAGTQPQLQIRGVGFDRTLGGLEMELRLREHLAKLFNEQRKGQKAKDVRENPRAMAKLLREANRLKTVLSANADHMAQIEGLMDDVDFKAKVTRVEFEELCADLFDRVPGPVQQALQSAEMSLDQIEQVILVGGPTRVPKVQEVLLKPVGKEELGKNINADEAAAMGAVYQAAALSKAFKVKPFVVRDAVIYPILVEFTREVEEEPGLRSLKHNKRVLFSRMGPYPQRKVITFNRYSHDFNFHINYGDLGFLGPEDLRVFGSQNLTTVKLKGVGESFKKYPDYESKGIKAHFNLDESGVLSLDRVESVFETLVEDSPEEESTLTKLGNTISSLFGGGTSSDAKENGTDAVQEEEESPAEGSKDEPAEQGELKEEAEAPMEDTSQPPPSEPKGDAAREGETPDEKESGDKSEAQKPNEKGQAGPEGVPPAPEEEKKQKPARKQKMVEEIGVELAVLDLPDLPEDELAHSVQKLEDLTLRDLEKQEREKAANSLEAFIFETQDKLYQPEYQEVSTEEQREEISGKLSATSTWLEDEGFGATTVMLKDKLAELRKLCQGLFFRVEERRKWPERLSALDNLLNHSSIFLKGARLIPEMDQIFTDVEMTTLEKVINDTWTWKNATLAEQAKLPATEKPVLLSKDIEAKMMALDREVQYLLNKAKFTKPRPRPKDKNGTRTEPPLNASAGDQEEKVIPPTGQTEEAKAILEPDKEGLGTEAADSEPLELGGPGAESEQAEQTAGQKRPLKNDEL
B3: ECHB, endogenous in INS1 (protein, UniProt Q60587 35-475)
chain: SAPAVQTKSKKTLAKPNLKNIVVVEGVRIPFLLSGTSYKDLMPHDLARAALSGLLYRTNIPKDVVDYIIFGTVIQEVKTSNVAREAALGAGFSDKTPAHTVTMACISSNQAMTTAVGLIASGQCDVVVAGGVELMSDVPIRHSRNMRKMMLDLNKAKTLAQRLSLLTKFRLNFLSPELPAVAEFSTNETMGHSADRLAAAFAVSRMEQDKYALRSHSLAKKAQDEGHLSDIVPFKVPGKDTVSKDNGIRPSSLEQMAKLKPAFIKPYGTVTAANSSFLTDGASAMLIMSEDRALAMGYKPKAYLRDFIYVSQDPKDQLLLGPTYATPKVLEKAGLTMNDIDAFEFHEAFSGQILANFKAMDSDWFAQNYMGRKTKVGAPPLEKFNIWGGSLSLGHPFGATGCRLVMAAANRLRKDGGQYALVAACAAGGQGHAMIVEAYPK
B4: PDIA6, endogenous in INS1 (protein, UniProt Q63081 20-440)
chain: LYSSSDDVIELTPSNFNREVIQSDSLWLVEFYAPWCGHCQRLTPEWKKAASALKDVVKVGAVNADKHQSLGGQYGVQGFPTIKIFGANKNKPEDYQGGRTGEAIVDAALSALRQLVKDRLGGRSGGYSSGKQGRGDSSSKKDVVELTDDTFDKNVLDSEDVWMVEFYAPWCGHCKNLEPEWAAAATEVKEQTKGKVKLAAVDATVNQVLASRYGIKGFPTIKIFQKGESPVDYDGGRTRSDIVSRALDLFSDNAPPPELLEIINEDIAKKTCEEHQLCVVAVLPHILDTGATGRNSYLEVLLKLADKYKKKMWGWLWTEAGAQYELENALGIGGFGYPAMAAINARKMKFALLKGSFSEQGINEFLRELSFGRGSTAPVGGGSFPNITPREPWDGKDGELPVEDDIDLSDVELDDLEKDEL
B5: leucine-rich repeat-containing protein 59, endogenous in INS1 (protein, UniProt Q5RJR8 1-307)
chain: MTKTGSKGGNLRDKLDGNELDLSLSDLNEVPVKELAALPKATVLDLSCNKLSTLPSDFCGLTHLVKLDLSKNKLQQLPADFGRLVNLQHLDLLNNRLVTLPVSFAQLKNLKWLDLKDNPLDPVLAKVAGDCLDEKQCKQCANKVLQHMKAVQADQERERQRRLEVEREAEKKREAKQQAKEAKERELRKREKAEEKERRRKEYDAQKASKREQEKKPKKETNQAPKSKSGSRPRKPPPRKHNRSWAVLKGLLLLLLLCVAGGLVVCRVTGLQQQPLCTSVNAIYDNAVQGLRHHEILQWVLQTDSQQ
B6: NADPH--cytochrome P450 reductase, endogenous in INS1 (protein, UniProt P00388 1-678)
chain: MGDSHEDTSATMPEAVAEEVSLFSTTDMVLFSLIVGVLTYWFIFRKKKEEIPEFSKIQTTAPPVKESSFVEKMKKTGRNIIVFYGSQTGTAEEFANRLSKDAHRYGMRGMSADPEEYDLADLSSLPEIDKSLVVFCMATYGEGDPTDNAQDFYDWLQETDVDLTGVKFAVFGLGNKTYEHFNAMGKYVDQRLEQLGAQRIFELGLGDDDGNLEEDFITWREQFWPAVCEFFGVEATGEESSIRQYELVVHEDMDVAKVYTGEMGRLKSYENQKPPFDAKNPFLAAVTANRKLNQGTERHLMHLELDISDSKIRYESGDHVAVYPANDSALVNQIGEILGADLDVIMSLNNLDEESNKKHPFPCPTTYRTALTYYLDITNPPRTNVLYELAQYASEPSEQEHLHKMASSSGEGKELYLSWVVEARRHILAILQDYPSLRPPIDHLCELLPRLQARYYSIASSSKVHPNSVHICAVAVEYEAKSGRVNKGVATSWLRAKEPAGENGGRALVPMFVRKSQFRLPFKSTTPVIMVGPGTGIAPFMGFIQERAWLREQGKEVGETLLYYGCRRSDEDYLYREELARFHKDGALTQLNVAFSREQAHKVYVQHLLKRDREHLWKLIHEGGAHIYVCGDARNMAKDVQNTFYDIVAEFGPMEHTQAVDYVKKLMTKGRYSLDVWS
B7: phosphatidylethanolamine-binding protein 1, endogenous in INS1 (protein, UniProt P31044 1-187)
chain: MAADISQWAGPLSLQEVDEPPQHALRVDYGGVTVDELGKVLTPTQVMNRPSSISWDGLDPGKLYTLVLTDPDAPSRKDPKFREWHHFLVVNMKGNDISSGTVLSEYVGSGPPKDTGLHRYVWLVYEQEQPLNCDEPILSNKSGDNRGKFKVESFRKKYHLGAPVAGTCFQAEWDDSVPKLHDQLAGK
B8: transketolase, endogenous in INS1 (protein, UniProt P50137 1-623)
chain: MEGYHKPDQQKLQALKDTANRLRISSIQATTAAGSGHPTSCCSAAEIMAVLFFHTMRYKALDPRNPHNDRFVLSKGHAAPILYAVWAEAGFLPEAELLNLRKISSDLDGHPVPKQAFTDVATGSLGQGLGAACGMAYTGKYFDKASYRVYCMLGDGEVSEGSVWEAMAFAGIYKLDNLVAIFDINRLGQSDPAPLQHQVDVYQKRCEAFGWHAIIVDGHSVEELCKAFGQAKHQPTAIIAKTFKGRGITGIEDKEAWHGKPLPKNMAEQIIQEIYSQVQSKKKILATPPQEDAPSVDIANIRMPTPPNYKVGDKIATRKAYGLALAKLGHASDRIIALDGDTKNSTFSELFKKEHPDRFIECYIAEQNMVSIAVGCATRDRTVPFCSTFAAFFTRAFDQIRMAAISESNINLCGSHCGVSIGEDGPSQMALEDLAMFRSVPMSTVFYPSDGVATEKAVELAANTKGICFIRTSRPENAIIYSNNEDFQVGQAKVVLKSKDDQVTVIGAGVTLHEALAAAEMLKKEKIGVRVLDPFTIKPLDKKLILDCARATKGRILTVEDHYYEGGIGEAVSAVVVGEPGVTVTRLAVSQVPRSGKPAELLKMFGIDKDAIVQAVKGLVTKG
B9: ERO1-like protein alpha, endogenous in INS1 (protein, UniProt Q8R4A1 24-464)
chain: EEQQQETAAQRCFCQVSGYLDDCTCDVETIDKFNNYRLFPRLQKLLESDYFRYYKVNLRKPCPFWNDINQCGRRDCAVKPCHSDEVPDGIKSASYKYSKEANLLEECEQAERLGAVDESLSEETQKAVLQWTKHDDSSDSFCEVDDIQSPDAEYVDLLLNPERYTGYKGPDAWRIWSVIYEENCFKPQTIQRPLASGQGKHKENTFYSWLEGLCVEKRAFYRLISGLHASINVHLSARYLLQDNWLEKKWGHNVTEFQQRFDGVLTEGEGPRRLKNLYFLYLIELRALSKVLPFFERPDFQLFTGNKVQDVENKELLLEILHEVKSFPLHFDENSFFAGDKNEAHKLKEDFRLHFRNISRIMDCVGCFKCRLWGKLQTQGLGTALKILFSEKLIANMPESGPSYEFQLTRQEIVSLFNAFGRISTSVRELENFRHLLQNVH
B10: PGAM1, endogenous in INS1 (protein, UniProt P25113 1-254)
chain: MAAYKLVLIRHGESAWNLENRFSGWYDADLSPAGHEEAKRGGQALRDAGYEFDICFTSVQKRAIRTLWTVLDAIDQMWLPVVRTWRLNERHYGGLTGLNKAETAAKHGEAQVKIWRRSYDVPPPPMEPDHPFYSNISKDRRYADLTEDQLPSCESLKDTIARALPFWNEEIVPQIKEGKRVLIAAHGNSLRGIVKHLEGLSEEAIMELNLPTGIPIVYELDKNLKPIKPMQFLGDEETVRKAMEAVAAQGKVKK
B11: HS105, endogenous in INS1 (protein, UniProt Q66HA8 1-858)
chain: MSVVGLDVGSQSCYIAVARAGGIETIANEFSDRCTPSVISFGPKNRTIGVAAKNQQITHANNTVSSFKRFHGRAFNDPFIQKEKENLSYDLVPMKNGGVGIKVMYMDEDHLFSVEQITAMLLTKLKETAENNLKKPVTDCVISVPSFFTDAERRSVLDAAQIVGLNCLRLMNDMTAVALNYGIYKQDLPNADEKPRVVVFVDMGHSSFQVSACAFNKGKLKVLGTAFDPFLGGKNFDEKLVEHFCAEFKTKYKLDAKSKIRALLRLHQECEKLKKLMSSNSTDLPLNIECFMNDKDVSAKMNRSQFEELCAELLQKIEVPLHLLMEQTHLKTEEVSAIEIVGGATRIPAVKERIARFFGKDVSTTLNADEAVARGCALQCAILSPAFKVREFSVTDAVPFPISLVWNHDSEETEGVHEVFSRNHAAPFSKVLTFLRRGPFELEAFYSDPQAVPYPEAKIGRFVVQNVSAQKDGEKSKVKVKVRVNTHGIFTISTASMVEKVPTEEEDGSSVEADMECPNQKPAESSDVDKNIQQDNSEAGTQPQVQTDGQQTSQSPPSPELTSEENKIPDADKANEKKVDQPPEAKKPKIKVVNVELPVEANLVWQLGRDLLNMYIETEGKMIMQDKLEKERNDAKNAVEECVYEFRDKLCGPYEKFICEQEHEKFLRLLTETEDWLYEEGEDQAKQAYIDKLEELMKMGTPVKVRFQEAEERPRVLEELGQRLQHYAKIAADFRGKDEKYNHIDESEMKKVEKSVNEVMEWMNNVMNAQAKRSLHQDPVVRTHEISAKVKELNNVCEPVVTQPKPKIESPKLERTPNGPNMDKKEDLEGKSNLGADAPHQNGECHPNEKGSVSMDLD

molecular target: T1, SH-tagged MANF (pre-SH-MANF), expressed in HEK293 cells (human); assay: affinity purification with mass spectrometry; SH-tagged MANF as bait from doxycycline-induced HEK293 pre-SH-MANF cells; HENN lysis buffer (50 mM Hepes-NaOH pH 8.0, 5 mM EDTA, 150 mM NaCl, 50 mM NaF, 0.5% NP40); Strep-Tactin beads, biotin elution; GFP-SH cells as negative control; FDR <= 0.001, s0 = 2

| Binder | binding |
| --- | --- |
| B1 | binds |

molecular target: T2, SH-tagged MANF (pre-SH-MANF), expressed in INS1 cells (human); assay: affinity purification with mass spectrometry; SH-tagged MANF as bait from doxycycline-induced INS1 pre-SH-MANF cells; HENN lysis buffer; Strep-Tactin beads, biotin elution; GFP-SH cells as negative control; FDR <= 0.001, s0 = 2

| Binder | binding |
| --- | --- |
| B2 | binds |
| B3 | binds |
| B4 | binds |
| B5 | binds |
| B6 | binds |
| B7 | binds |
| B8 | binds |
| B9 | binds |
| B10 | binds |
| B11 | binds |

These are yes or no findings as the source states them, for the method shown. In cells and extracts the contact can be indirect. Here binding means that the protein was enriched with, or labelled near, the bait; the list need not be complete. Tags and fused reporters may be left off the sequences shown.
